One assay concerns the target 3xHA-tagged RNF126 (UniProt Q9BV68). Kind of assay: co-IP; epitope-tagged Bag6 and RNF126 constructs coexpressed in HEK293T; IP with anti-HA antibodies, immunoblot.
The target of assay [1] is RNF126F, construct encoding only the first 100 residues of RNF126, expressed in cells (UniProt Q9BV68). Kind of assay: co-IP.
A further assay has as its target recombinant Bag6 (UniProt P46379). Description: maintenance of solubility on heating (centrifugation, SDS-PAGE, Coomassie); equimolar rBag6 (or ΔUbl-rBag6) and luciferase heated to 42°C for 20 min, aggregates removed by centrifugation (10 min, 20,000 x g); both purified.
Assay [2] addresses Bag6 (endogenous, cellular) (human (endogenous in HEK293T)) (UniProt P46379). Kind of assay: co-IP.
The target of a further assay is FLAG-tagged Bag6 (UniProt P46379).

The chains behind the UniProt entries cited, without tags or fusion partners. Where a name states a change or a piece, a line headed by the entry shows the natural chain unless it says otherwise. Residues count along the entry.
UniProt Q9BV68: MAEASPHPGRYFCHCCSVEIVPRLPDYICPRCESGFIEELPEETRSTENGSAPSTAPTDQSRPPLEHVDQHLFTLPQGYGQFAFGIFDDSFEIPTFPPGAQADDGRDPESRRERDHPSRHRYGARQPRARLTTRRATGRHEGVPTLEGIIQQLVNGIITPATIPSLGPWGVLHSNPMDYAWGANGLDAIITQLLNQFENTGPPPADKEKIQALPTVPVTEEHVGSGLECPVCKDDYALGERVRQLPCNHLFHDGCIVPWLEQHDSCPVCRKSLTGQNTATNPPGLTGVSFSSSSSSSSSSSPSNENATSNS
RNF126F, construct encoding only the first 100 residues of RNF126, expressed in cells: residues 1-100 of Q9BV68
UniProt P08659: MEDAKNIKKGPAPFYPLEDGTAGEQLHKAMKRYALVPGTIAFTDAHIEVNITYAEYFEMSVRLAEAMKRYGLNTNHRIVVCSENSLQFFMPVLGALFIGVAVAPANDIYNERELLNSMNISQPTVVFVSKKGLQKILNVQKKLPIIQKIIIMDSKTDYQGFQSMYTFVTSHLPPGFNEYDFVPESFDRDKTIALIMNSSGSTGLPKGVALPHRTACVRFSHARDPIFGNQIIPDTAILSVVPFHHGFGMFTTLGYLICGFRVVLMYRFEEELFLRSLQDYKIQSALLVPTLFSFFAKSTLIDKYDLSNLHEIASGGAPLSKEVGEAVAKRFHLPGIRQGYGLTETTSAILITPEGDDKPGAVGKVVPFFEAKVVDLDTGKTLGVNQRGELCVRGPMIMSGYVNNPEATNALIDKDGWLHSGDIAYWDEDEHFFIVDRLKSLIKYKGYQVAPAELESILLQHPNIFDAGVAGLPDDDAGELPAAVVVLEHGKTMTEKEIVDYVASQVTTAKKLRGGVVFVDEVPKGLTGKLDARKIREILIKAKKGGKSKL

This passage reports binding results from article PMC4104027.

These are yes or no findings as the source states them, for the method shown. For some assays here: In cells and extracts the contact can be indirect. Some binding calls cover weakened binding; strength is not graded here.

Take “FLAG-tagged Bag6 (from UniProt P46379 1-1132)”: the binding result (in the assay with 3xHA-tagged RNF126; in assay [1]) was “binds” throughout. Take “Firefly luciferase (from UniProt P08659 1-550) (enzyme)”: the binding entry with recombinant Bag6 is reported as “binds”.

On to “Glycosylated wild-type PrP (from UniProt P04156 23-230)”, for which the binding entry in assay [2] is “no binding”.

B1: RNF123 (enzyme, UniProt Q5XPI4 1-1314)
chain: MASKGAGMSFSRKSYRLTSDAEKSRVTGIVQEKLLNDYLNRIFSSSEHAPPAATSRKPLNFQNLPEHLDQLLQVDNEEEESQGQVEGRLGPSTVVLDHTGGFEGLLLVDDDLLGVIGHSNFGTIRSTTCVYKGKWLYEVLISSQGLMQIGWCTISCRFNQEEGVGDTHNSYAYDGNRVRKWNVTTTNYGKAWAAGDIVSCLIDLDDGTLSFCLNGVSLGTAFENLSRGLGMAYFPAISLSFKESVAFNFGSRPLRYPVAGYRPLQDPPSADLVRAQRLLGCFRAVLSVELDPVEGRLLDKESSKWRLRGQPTVLLTLAHIFHHFAPLLRKVYLVEAVLMSFLLGIVEKGTPTQAQSVVHQVLDLLWLFMEDYEVQDCLKQLMMSLLRLYRFSPIVPDLGLQIHYLRLTIAILRHEKSRKFLLSNVLFDVLRSVVFFYIKSPLRVEEAGLQELIPTTWWPHCSSREGKESTEMKEETAEERLRRRAYERGCQRLRKRIEVVEELQVQILKLLLDNKDDNGGEASRYIFLTKFRKFLQENASGRGNMPMLCPPEYMVCFLHRLISALRYYWDEYKASNPHASFSEEAYIPPQVFYNGKVDYFDLQRLGGLLSHLRKTLKDDLASKANIVIDPLELQSTAMDDLDEDEEPAPAMAQRPMQALAVGGPLPLPRPGWLSSPTLGRANRFLSTAAVSLMTPRRPLSTSEKVKVRTLSVEQRTREDIEGSHWNEGLLLGRPPEEPEQPLTENSLLEVLDGAVMMYNLSVHQQLGKMVGVSDDVNEYAMALRDTEDKLRRCPKRRKDILAELTKSQKVFSEKLDHLSRRLAWVHATVYSQEKMLDIYWLLRVCLRTIEHGDRTGSLFAFMPEFYLSVAINSYSALKNYFGPVHSMEELPGYEETLTRLAAILAKHFADARIVGTDIRDSLMQALASYVCYPHSLRAVERIPEEQRIAMVRNLLAPYEQRPWAQTNWILVRLWRGCGFGYRYTRLPHLLKTKLEDANLPSLQKPCPSTLLQQHMADLLQQGPDVAPSFLNSVLNQLNWAFSEFIGMIQEIQQAAERLERNFVDSRQLKVCATCFDLSVSLLRVLEMTITLVPEIFLDWTRPTSEMLLRRLAQLLNQVLNRVTAERNLFDRVVTLRLPGLESVDHYPILVAVTGILVQLLVRGPASEREQATSVLLADPCFQLRSICYLLGQPEPPAPGTALPAPDRKRFSLQSYADYISADELAQVEQMLAHLTSASAQAAAASLPTSEEDLCPICYAHPISAVFQPCGHKSCKACINQHLMNNKDCFFCKTTIVSVEDWEKGANTSTTSSAA
On to B1, for which the binding result with FLAG-tagged Bag6 is recorded as “binds”.
